Assay results: publication PMC3474971
For at least one entry, the source does not settle the construct or the ends of the probe. No signal at the amounts used counts as a negative.

Tested on: lysozyme
Experiment: dye-displacement fluorescence
Conditions: YOYO-1 25 nM, aptamer 10 nM; 20 mM Tris-Cl pH 7.5, 300 mM NaCl, 5 mM MgCl2, 10 mM KCl; 25 C; 30 min incubation with target before dye; folded or branched DNA

“GGTTGGTGTGGTTGG [thrombin-binding aptamer (TBA)]”: no binding.
